No constants are given. Whether binding was seen depends on the method and setting. Some binding calls cover weakened binding; strength is not graded here.
Key:
[1] = biological target: endogenous human Tie1 (primary human endothelial cells HDMEC/HDMVEC, HUVEC, human tissue sections, SW480 cells) (human) (UniProt P35590); assay: IF, HDMEC
[2] = biological target: endogenous human Tie1 (primary human endothelial cells HDMEC/HDMVEC, HUVEC, human tissue sections, SW480 cells) (human) (UniProt P35590); assay: WB, HDMEC
[3] = biological target: V5-tagged full length human Tie1 expressed in COS1 cells (pcDNA3-Tie1-V5) (human) (UniProt P35590); assay: WB, IP and IF
[4] = biological target: endogenous human Tie1 (primary human endothelial cells HDMEC/HDMVEC, HUVEC, human tissue sections, SW480 cells) (human) (UniProt P35590); assay: WB, IP and IF
[5] = biological target: V5-tagged full length human Tie1 expressed in COS1 cells (pcDNA3-Tie1-V5) (human) (UniProt P35590); assay: IF, Tie1-V5 COS1 cells
[6] = biological target: V5-tagged full length human Tie1 expressed in COS1 cells (pcDNA3-Tie1-V5) (human) (UniProt P35590); assay: IP, Tie1-V5 COS1 cells
[7] = biological target: V5-tagged full length human Tie1 expressed in COS1 cells (pcDNA3-Tie1-V5) (human) (UniProt P35590); assay: WB, Tie1-V5 COS1 cells
[8] = biological target: endogenous human Tie1 (primary human endothelial cells HDMEC/HDMVEC, HUVEC, human tissue sections, SW480 cells) (human) (UniProt P35590); assay: immunohistochemistry, human lung carcinoma sections
[9] = biological target: endogenous human Tie1 (primary human endothelial cells HDMEC/HDMVEC, HUVEC, human tissue sections, SW480 cells) (human) (UniProt P35590); assay: immunohistochemistry, human skin and melanoma sections
[10] = biological target: endogenous human Tie1 (primary human endothelial cells HDMEC/HDMVEC, HUVEC, human tissue sections, SW480 cells) (human) (UniProt P35590); assay: immunohistochemistry, human kidney and hypernephroma sections
[11] = biological target: endogenous human Tie1 (primary human endothelial cells HDMEC/HDMVEC, HUVEC, human tissue sections, SW480 cells) (human) (UniProt P35590); assay: immunohistochemistry, human breast and breast carcinoma sections
[12] = biological target: endogenous human Tie1 (primary human endothelial cells HDMEC/HDMVEC, HUVEC, human tissue sections, SW480 cells) (human) (UniProt P35590); assay: immunohistochemistry, frozen human tissue sections, biotinylated IgG
[13] = biological target: endogenous human Tie1 (primary human endothelial cells HDMEC/HDMVEC, HUVEC, human tissue sections, SW480 cells) (human) (UniProt P35590); assay: immunohistochemistry, human lung and lung carcinoma sections
[14] = biological target: endogenous human Tie1 (primary human endothelial cells HDMEC/HDMVEC, HUVEC, human tissue sections, SW480 cells) (human) (UniProt P35590); assay: IP, HDMEC

By UniProt entry, the sequences of proteins in these tests, tags left out. Where a name states a change or a piece, a line headed by the entry shows the natural chain unless it says otherwise.
UniProt P35590: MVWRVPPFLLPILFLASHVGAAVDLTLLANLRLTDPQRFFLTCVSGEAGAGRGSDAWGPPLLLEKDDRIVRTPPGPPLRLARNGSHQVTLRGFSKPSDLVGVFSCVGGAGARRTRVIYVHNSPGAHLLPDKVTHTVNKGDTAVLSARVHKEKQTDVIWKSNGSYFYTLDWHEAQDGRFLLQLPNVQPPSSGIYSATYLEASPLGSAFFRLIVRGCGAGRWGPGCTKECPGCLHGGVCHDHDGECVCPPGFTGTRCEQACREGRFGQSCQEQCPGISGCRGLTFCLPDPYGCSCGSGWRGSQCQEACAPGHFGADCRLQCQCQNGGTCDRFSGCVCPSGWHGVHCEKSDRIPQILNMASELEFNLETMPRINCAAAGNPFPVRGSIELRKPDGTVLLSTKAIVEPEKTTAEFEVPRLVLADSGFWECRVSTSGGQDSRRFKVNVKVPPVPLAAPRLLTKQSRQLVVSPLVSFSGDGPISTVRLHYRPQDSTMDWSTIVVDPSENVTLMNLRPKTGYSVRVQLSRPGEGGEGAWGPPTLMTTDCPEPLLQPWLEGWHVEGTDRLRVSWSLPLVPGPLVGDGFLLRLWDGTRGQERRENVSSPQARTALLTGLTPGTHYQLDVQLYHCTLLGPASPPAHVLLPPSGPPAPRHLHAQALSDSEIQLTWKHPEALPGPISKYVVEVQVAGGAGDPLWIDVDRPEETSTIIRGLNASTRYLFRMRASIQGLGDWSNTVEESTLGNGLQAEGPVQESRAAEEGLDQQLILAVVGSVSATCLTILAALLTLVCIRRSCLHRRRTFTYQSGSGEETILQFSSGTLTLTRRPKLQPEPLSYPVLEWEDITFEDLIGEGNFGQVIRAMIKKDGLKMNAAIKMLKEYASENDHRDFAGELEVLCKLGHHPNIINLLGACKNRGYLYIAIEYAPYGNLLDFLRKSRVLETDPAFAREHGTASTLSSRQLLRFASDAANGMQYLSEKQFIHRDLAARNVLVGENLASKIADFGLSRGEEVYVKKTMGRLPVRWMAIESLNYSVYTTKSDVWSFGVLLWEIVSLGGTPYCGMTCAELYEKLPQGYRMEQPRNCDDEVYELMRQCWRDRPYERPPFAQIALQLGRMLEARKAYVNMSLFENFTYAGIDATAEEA

Measured: binding

B1: B2 IgG1 (isolate s-B2) (antibody, V domains shown)
VH: EVQLLESGGGLVQPGGSLRLSCAASGFTFSIYGMAWVRQAPGKGLEWVSVISPSGGQTFYADSVKGRFTISRDNSKNTLYLQMNSLRAEDTAVYYCARVYYYGMDVWGQGTTVTVSS
VL: DIQMTQSPATLSLSPGERATLSCRASQSVSSYLAWYQQKPGQAPRLLIYDASNRATGIPARFSGSGSETDFTLTISSLEPEDFAVYYCQQRSKWPRTFGQGTKLEIK
not listed: [13] | [14]
binds: all other assays above

B2: D11 IgG1 (isolate s-D11) (antibody, V domains shown)
VH: EVQLLESGGGLVQPGGSLRLSCAASGFTFSGYAMWWVRQAPGKGLEWVSSISPSGGATAYADSVKGRFTISRDNSKNTLYLQMNSLRAEDTAVYYCARDAGSYYWGWFDPWGQGTLVTVSS
VL: DIQMTQSPATLSLSPGERATLSCRASQSISSYLAWYQQKPGQPPRLLIYDASSRVTGIPARFSGSGFGTDFTLTISSLEPEDFAVYYCLQRSSWPRTFGQGTKLEIK
not listed: [8] | [12] | [14]
binds: all other assays above

B3: C7 IgG1 (isolate s-C7) (antibody, V domains shown)
VH: EVQLLESGGGLVQPGGSLRLSCAASGFTFSRYVMYWVRQAPGKGLEWVSVIYPSGGATYYADSVKGRFTISRDNSKNTLYLQMNSLRAEDTAVYYCARRGSSGAFDYWGQGTLVTVSS
VL: AQSVLTQPASVSGSPGQSITISCTGTSSDIGRYNYASWYQQRPGKSPKLLIYEVSDRPSGVSNRFSGSKSGNTASLIISGLQAEDEADYYCSSYSSTNSLQVVFGGGTKLSVLG
binds: [1] | [14] | [2] | [3] | [4] | [5] | [6] | [7]

B4: H4 IgG1 (isolate s-H4) (antibody, V domains shown)
VH: EVQLLESGGGLVQPGGSLRLSCAASGFTFSSYKMGWVRQAPGKGLEWVSSIYPSGGWTHYADSVKGRFTISRDNSKNTLYLQMNSLRAEDTAVYYCARVLLHYFDYWGQGTLV
VL: AQSVLTQPASVSGSPGQSITISCTGTSSDVGGYKYVSWYQQHPGKAPKLIISDVNNRPSGVSDRFSGSKSGNTASLTISGLQAEDDGDYYCSSYASSSYTSSTTWVFGGGTKLTVLG
binds: [1] | [14] | [2] | [3] | [4] | [5] | [6] | [7]

B5: A10 IgG1 (isolate s-A10) (antibody, V domains shown)
VH: EVQLLESGGGLVQPGGSLRLSCAASGFTFSNYVMVWVRQAPGKGLEWVSGIYPSGGHTKYADSVKGRFTISRDNSKNTLYLQMNSLRAEDTAVYYCARVNYYDSSGYGPIAPGLDYWGQGTLV
VL: DIQMTQSPGTLSLSPGERATLFCRASQRVTSNSLAWYQQRPGQAPRLLIYDASTRATGIPDRFSGSGSGRDFTLTISRLEPEDFAVYYCQRYGSSVLYSFGQGTKLEIT
binds: [1] | [14] | [2] | [3] | [4] | [5] | [6] | [7]

B6: A2 IgG1 (isolate s-A2) (antibody, V domains shown)
VH: EVQLLESGGGLVQPGGSLRLSCAASGFTFSRYTMMWVRQAPGKGLEWVSGIYPSGGVTLYADSVKGRFTISRDNSKNTLYLQMNSLRAEDTAVYYCARVNYYDSSGYGPIAPGLDYWGQGTLVTVSS
VL: DIQMTQSPGTLSLSPGERATLSCRASRSVIISYVAWYQQKPGQAPRLLIYGASTRATGIPDRFSGSGSGTDFTLTISRLEPEDFAVYFCQLYGRSPRIIFGQGTRLEIK
binds: [1] | [14] | [2] | [3] | [4] | [5] | [6] | [7]

B7: C10 IgG1 (isolate s-C10) (antibody, V domains shown)
VH: EVQLLESGGGLVQPGGSLRLSCAASGFTFSAYGMSWVRQAPGKGLEWVSVIYPSGGWTYYADSVKGRFTISRDNSKNTLYLQMNSLRAEDTAVYYCARVNYYDSSGYGPIAPGLDYWGQGTLVTVSS
VL: DIQMTQSPGTLSLSPGERATLSCRASQSVSSSYLAWYQQKPGQAPRLLIYGASSRATGIPDRFSGSGSGTDFTLTISRLEPEDFAVYYCQQYNNWPRTFGQGTKVEIK
binds: [1] | [14] | [2] | [3] | [4] | [5] | [6] | [7]

B8: C2 IgG1 (isolate s-C2) (antibody, V domains shown)
VH: EVQLLESGGGLVQPGGSLRLSCAASGFTFSRYKMKWVRQAPGKGLEWVSVIYPSGGGTGYADSVKGRFTISRDNSKNTLYLQMNSLRAEDTAVYYCARVNYYDSSGYGPIAPGLDYWGQGTLVTVSS
VL: AQSVLTQPDSVSGSPGESITISCTGSSRDVGGYNYVSWYQQHPGKAPKLLLYDVTYRPSGISGRFSGSKSGDTASLTISGLRTEDEADYYCSSSIGTRTYVFGSGTKVTVLR
binds: [1] | [14] | [2] | [3] | [4] | [5] | [6] | [7]

B9: B9 IgG1 (isolate s-B9) (antibody, V domains shown)
VH: EVQLLESGGGLVQPGGSLRLSCAASGFTFSSYVMMWVRQAPGKGLEWVSGIYPSGGWTYYTDSVKGRFTISRDNSKNTLYLQMNSLRAEDTAVYYCARVNYYDSSGYGPIAPGLDYWGQGTLVTVSS
VL: DIQMTQSPSSLSASVGDRVTITCRASQSVSSHLSWFQQRPGKAPNLLIYHASSLQSGVPSRFSGSGSGTDFTLTISSLQPEDFATYYCQQSYATSSITFGQGTRLDIK
binds: [1] | [14] | [2] | [3] | [4] | [5] | [6] | [7]

Source: patent publication US20110059105A1
